In this test the test system is P388 leukemia ip, CD2F1 mice, survival T/C. The test is described as follows: NCI In Vivo Anticancer Drug Screen. Data for tumor model P388 Leukemia (intraperitoneal) in CD2F1 (CDF1) mice. As to conditions: T/C endpoint: median survival time, higher T/C = longer survival.
The mark [1] stands for this setting: dose: 200.0 mg/kg/injection, schedule: Q01DX009 (ip), vehicle: saline with Tween-80.
Where [2] appears, read: dose: 200.0 mg/kg/injection, schedule: Q01DX005 (ip), vehicle: Klucel (hydroxypropylcellulose) (HPC).
The mark [3] stands for this setting: dose: 200.0 mg/kg/injection, schedule: Q01DX005 (ip), vehicle: saline.
Where [4] appears, read: dose: 200.0 mg/kg/injection, schedule: Q01DX005 (ip), vehicle: saline with Tween-80.

The list is a part of this screen's results and no random one: it gathers tests that were run many times, whatever their T/C, doses with no T/C, and many T/C values between a quarter and a half above the control. Other doses and runs of a compound stand elsewhere. T/C gives the treated animals as a percentage of the vehicle group. Some doses have a count of surviving animals in place of a T/C: the source holds a T/C of zero for them, seemingly a mark for toxic or unscored doses. Some survivor counts are full or nearly so, which does not show that the dose was tolerated: the source hardly ever lists a survival T/C far under the control, and the zero likely stands for such cases as well. Counts of survivors are from the toxicity check (mostly the fifth day) where no day follows; animals may have died later. Schedule codes are those of the source, taken here to give the interval after Q, in days (D) or hours (H), and the number of doses after X. Some doses were run more than once; the values are given in rising order. Some structures stand for samples that the source files as different forms (salt, stereo form or complex); doses refer to the form tested. For survival time, this PubChem deposit counts one and a half times the control or more as active, and values a quarter to a half above the control carry no call in these data; other NCI protocols may use other cut-offs.

Consider `COc1cccc2c1C(=O)c1c(O)c3c(c(O)c1C2=O)C[C@@](O)(C(O)CO)C[C@@H]3OC1CC(NCc2ccccc2)C(O)C(C)O1` (some centres undefined), for which the T/C by setting is: (dose: 0.2 mg/kg/injection, schedule: Q01DX009 (ip), vehicle: water) 127 and 135 % of control; (dose: 0.39 mg/kg/injection, schedule: Q01DX009 (ip), vehicle: water) 149 % of control; (dose: 4.7 mg/kg/injection, schedule: Q04DX003 (ip), vehicle: water) 126 % of control; (dose: 6.25 mg/kg/injection, schedule: Q01DX009 (ip), vehicle: water) 125 % of control; (dose: 18.8 mg/kg/injection, schedule: Q04DX003 (ip), vehicle: water) 129 % of control; (dose: 37.5 mg/kg/injection, schedule: Q04DX003 (ip), vehicle: water) 143 % of control. Moreover, the survivor count (dose: 12.5 mg/kg/injection, schedule: Q01DX009 (ip), vehicle: water) is 6 of 6.

Consider `COc1cc2c(c3c1C(=O)c1c(cc4c(c1O)C(OC)CC(C)(O)C4)C3=O)OC1OC2(C)C(O)C(N(C)C)C1O` (centres undefined), for which the T/C is 133 % of control (dose: 2.5 mg/kg/injection, schedule: Q01DX009 (ip), vehicle: other) and 142 % of control (dose: 5.0 mg/kg/injection, schedule: Q01DX009 (ip), vehicle: other).

Regarding `CN1C(=O)C2CCCN2C(=O)C1(C)NC(=O)OCc1ccccc1` (centres undefined), the survivor count runs as follows: (dose: 50.0 mg/kg/injection, schedule: Q04DX003 (ip), vehicle: suspension in saline) 6 of 6; (dose: 100.0 mg/kg/injection, schedule: Q04DX003 (ip), vehicle: suspension in saline) 6 of 6.

`CCOC(=O)C[N+]12CCC34c5ccccc5N5C(=O)CC6OCC=C(C1)C(CC32)C6C54` (centres undefined): the survivor count runs as follows: (dose: 50.0 mg/kg/injection, schedule: Q01DX009 (ip), vehicle: saline with Tween-80) 0 of 6 and 1 of 6; (dose: 100.0 mg/kg/injection, schedule: Q01DX009 (ip), vehicle: saline with Tween-80) 0 of 6; under setting [1], 0 of 6.

In the case of `CS(=O)(=O)C(=C1C(=O)NC(=O)NC1=O)S(C)(=O)=O`, the survivor count (dose: 100.0 mg/kg/injection, schedule: Q01DX005 (ip), vehicle: Klucel (hydroxypropylcellulose) (HPC)) is recorded as 4 of 6 and the survivor count under setting [2] is on record as 0 of 6.

Consider `N#CC1=C(Nc2ccccc2)CCC1`, for which the survivor count under setting [2] was 0 of 5.

With `CCCCCCCCCCCCCCCC(=O)NCC(=O)NC1C(CO)OC(Nc2ncnc3nc[nH]c23)C(O)C1O` (centres undefined), the T/C runs as follows: (dose: 0.25 mg/kg/injection, schedule: Q01DX009 (ip), vehicle: water) 133 % of control; (dose: 0.5 mg/kg/injection, schedule: Q01DX009 (ip), vehicle: water) 135 and 137 % of control; (dose: 1.0 mg/kg/injection, schedule: Q01DX009 (ip), vehicle: water) 125 % of control. In addition, the survivor count is given as 6 of 6 (dose: 2.0 mg/kg/injection, schedule: Q01DX009 (ip), vehicle: water) and 6 of 6 (dose: 4.0 mg/kg/injection, schedule: Q01DX009 (ip), vehicle: water).

`O=C(NC(Cc1ccc(Br)cc1)C(=O)O)c1cccc(Cl)c1` (centres undefined): under setting [3], the survivor count is on record as 1 of 6.

In the case of `O=C(O)c1cc(C(=O)CC(=O)c2cc(C(=O)O)c(O)c3ccccc23)c2ccccc2c1O`, the survivor count under setting [1] is 0 of 6.

On to `NC(=O)c1sc(SCc2ccccc2)c(-[n+]2ccccc2)c1N`, for which the survivor count (dose: 100.0 mg/kg/injection, schedule: Q04DX002 (ip), vehicle: saline with Tween-80) was 5 of 6.

For `Cc1ccc2cccc(C(=O)N(C)C)c2[n+]1C`, the survivor count is 0 of 6 (dose: 0.62 mg/kg/injection, schedule: Q04DX002 (ip), vehicle: saline); 0 of 6 (dose: 1.25 mg/kg/injection, schedule: Q04DX002 (ip), vehicle: saline); 0 of 6 (dose: 2.5 mg/kg/injection, schedule: Q04DX002 (ip), vehicle: saline); 0 of 6 (dose: 12.5 mg/kg/injection, schedule: Q04DX002 (ip), vehicle: saline); 0 of 6 (dose: 25.0 mg/kg/injection, schedule: Q04DX002 (ip), vehicle: saline); 0 of 6 (dose: 50.0 mg/kg/injection, schedule: Q04DX002 (ip), vehicle: saline). For the same compound, where the note is “dose: 125.0 micrograms/kg/injection, schedule: Q04DX002 (ip), vehicle: saline”, the survivor count is 3 of 6.

For `CNC(=O)OCc1c(COC(=O)NC)c(-c2ccc(Br)cc2)n(C)c1C`, the T/C is, setting by setting: (dose: 2.5 mg/kg/injection, schedule: Q01DX009 (ip), vehicle: distilled water + Tween-80) 138 % of control; (dose: 3.12 mg/kg/injection, schedule: Q01DX009 (ip), vehicle: distilled water + Tween-80) 142 % of control; (dose: 5.0 mg/kg/injection, schedule: Q01DX009 (ip), vehicle: distilled water + Tween-80) 144 % of control; (dose: 6.25 mg/kg/injection, schedule: Q01DX009 (ip), vehicle: distilled water + Tween-80) 145 % of control; (dose: 10.0 mg/kg/injection, schedule: Q01DX009 (ip), vehicle: distilled water + Tween-80) 146 % of control; (dose: 12.5 mg/kg/injection, schedule: Q01DX009 (ip), vehicle: distilled water + Tween-80) 148 % of control. In addition, the T/C (dose: 25.0 mg/kg/injection, schedule: Q01DX009 (ip), vehicle: distilled water + Tween-80) is 148 % of control. Further, the survivor count was 5 of 6 (dose: 40.0 mg/kg/injection, schedule: Q01DX009 (ip), vehicle: distilled water + Tween-80) and 4 of 6 (dose: 50.0 mg/kg/injection, schedule: Q01DX009 (ip), vehicle: distilled water + Tween-80).

For `O=[n+]1c2c(n([O-])c3cc(Cl)c(Cl)cc31)CCC2`, the survivor count (dose: 240.0 mg/kg/injection, schedule: Q01DX005 (ip), vehicle: saline with Tween-80) is given as 6 of 6.

As to `O=C(O)C(O)C(O)C1[O][Sb][O]C1C(=O)O` (centres undefined), the T/C reads like this: (dose: 25.0 mg/kg/injection, schedule: Q01DX005 (ip), vehicle: saline) 126 % of control; (dose: 50.0 mg/kg/injection, schedule: Q01DX005 (ip), vehicle: saline) 135 and 139 % of control; under setting [4], 129 % of control. Also, the survivor count runs as follows: (dose: 100.0 mg/kg/injection, schedule: Q01DX005 (ip), vehicle: saline) 0 of 5 and 2 of 5; under setting [3], 0 of 5.

As for `Cc1nc(N)nc2ccccc12`, the survivor count by setting is: (dose: 60.0 mg/kg/injection, schedule: Q01DX005 (ip), vehicle: Klucel (hydroxypropylcellulose) (HPC)) 3 of 6; (dose: 120.0 mg/kg/injection, schedule: Q01DX005 (ip), vehicle: Klucel (hydroxypropylcellulose) (HPC)) 1 of 6; (dose: 240.0 mg/kg/injection, schedule: Q01DX005 (ip), vehicle: Klucel (hydroxypropylcellulose) (HPC)) 0 of 6.

As for `C[N+]1(C)N=C([O-])N(Cc2ccccc2)C1=O`, under “dose: 400.0 mg/kg/injection, schedule: Q04DX003 (ip), vehicle: saline”, the survivor count is 1 of 6.

For the compound `CCOC(=O)N1C=CC=C(Br)C1C#N` (centres undefined), the survivor count by setting is: (dose: 100.0 mg/kg/injection, schedule: Q01DX005 (ip), vehicle: saline with Tween-80) 0 of 6; under setting [4], 0 of 6.

As to `CCOC(=O)[C]1([Sb]([CH3])[CH3])N=NC(C(=O)OC)=C1C(=O)OC` (centres undefined), the T/C (dose: 200.0 mg/kg/injection, schedule: Q04DX003 (ip), vehicle: saline with Tween-80) is 147 % of control.
